Values of other authors in patent publication US20030130231A1, “2:1 Complex of beta- or gamma-cyclodextrin and alpha-tocopherol” (WACKER-CHEMIE GmbH, priority 2002, published 2003).
At least one structure is not confirmed: it was looked up by name or label, or the drawing left a doubt.

Conditions: cited from earlier work

SMILES: Cc1c(C)c2c(c(C)c1O)CC[C@@](C)(CCC[C@H](C)CCC[C@H](C)CCCC(C)C)O2 [α-tocopherol]
- radical protection factor: 41,200 ×10^14 radicals/mg
